{"source": "paper PMC7819943", "about": "“Rice protein-binding microarrays: a tool to detect cis-acting elements near promoter regions in rice”", "note": "This is one part of the list."}
{"molecular_target": "T1, OsSMF1 (Oryza sativa, UniProt Q6ZLB0 1-436)", "T1 sequence": "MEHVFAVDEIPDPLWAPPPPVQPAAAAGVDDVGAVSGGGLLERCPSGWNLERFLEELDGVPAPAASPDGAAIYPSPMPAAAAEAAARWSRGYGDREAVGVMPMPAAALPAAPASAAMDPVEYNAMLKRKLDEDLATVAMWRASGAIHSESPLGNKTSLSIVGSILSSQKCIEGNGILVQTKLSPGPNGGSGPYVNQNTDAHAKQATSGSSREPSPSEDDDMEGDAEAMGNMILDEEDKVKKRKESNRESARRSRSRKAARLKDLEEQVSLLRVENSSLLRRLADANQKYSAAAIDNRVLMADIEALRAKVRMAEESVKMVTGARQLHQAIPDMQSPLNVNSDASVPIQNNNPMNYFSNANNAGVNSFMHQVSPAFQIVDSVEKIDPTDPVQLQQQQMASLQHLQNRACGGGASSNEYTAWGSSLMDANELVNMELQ", "assay": "protein-binding microarray (RPBM); PBS, 2% BSA, 51.3 ng/ul salmon testes DNA, 50 uM zinc acetate, 200 nM TF, 25 C, 1 h; high values mean tight binding", "conditions": "protein: recombinant; tags: N-terminal polyhistidine and DsRed monomer fusion (pET32a); chain copies: 2; label: CyDye5-dUTP incorporated in the synthesized complementary strand; 3' TTTTT single-stranded linker to array surface; dsDNA, one strand shown", "how_it_was_run": "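An Axon 4000B scanner gave the binding signal as per-feature fluorescence intensity in arbitrary units. This followed washing of a custom Agilent array that had been incubated for 1 h at 25 °C with 200 nM protein in PBS, 2% BSA, salmon testes DNA and 50 µM zinc acetate. The proteins were transcription factors fused at the N-terminus to polyhistidine and DsRed, expressed in E. coli BL21-CodonPlus and purified on Ni–NTA.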"}
{"sequence": "ATATTCCACCAAGCAAAAGCCACATCATGCTGTGCTGTGCCGGAGTCACCTAGTGCAG", "binding signal": "6050 fluorescence intensity (a.u.)"}
{"sequence": "CTTATTGCTAAGTCACTCTGCTACATGTAAAAGGCATGACCGGAGTCACCTAGTGCAG", "binding signal": "3380 fluorescence intensity (a.u.)"}
{"sequence": "CTACTGAACTGCTGACTACTATGCTCCAGGTCCAAGCCCTCGGAGTCACCTAGTGCAG", "binding signal": "3420 fluorescence intensity (a.u.)"}
{"sequence": "TAGCGCGGCTGCACAGTACAGTCCGACGTCACAGCTCACTCGGAGTCACCTAGTGCAG", "binding signal": "49200 fluorescence intensity (a.u.)"}
{"sequence": "GGAGGGAGTATTGGATTACATAAATAAAACGTATACATGTCGGAGTCACCTAGTGCAG", "binding signal": "3560 fluorescence intensity (a.u.)"}
{"sequence": "GCGTGATTGACGCGGAACCCGAGGTGGACGGACTATGGAACGGAGTCACCTAGTGCAG", "binding signal": "3390 fluorescence intensity (a.u.)"}
{"sequence": "TTTCGGTCATGAAAACTCAGGACCAAATTTCATCCAAATACGGAGTCACCTAGTGCAG", "binding signal": "29300 fluorescence intensity (a.u.)"}
{"sequence": "ACATGGAGTTGAGTTGGTTAGTGTATCGAAGATTAAAATGCGGAGTCACCTAGTGCAG", "binding signal": "4100 fluorescence intensity (a.u.)"}
{"sequence": "TGTCCGTCTCCGACCTGCCCATGCTGTCGTGCCACTACATCGGAGTCACCTAGTGCAG", "binding signal": "3520 fluorescence intensity (a.u.)"}
{"sequence": "GATAATGGCTACCGTGCTGGATTCATGTCACCCACTTCTCCGGAGTCACCTAGTGCAG", "binding signal": "4390 fluorescence intensity (a.u.)"}
{"sequence": "GATCGAACCAAAGCCGAGTCATCGATTATCCTTATCCATTCGGAGTCACCTAGTGCAG", "binding signal": "6860 fluorescence intensity (a.u.)"}
{"sequence": "TCAAAAGATTCGTCTCGCGAATTAGTCCAAGATTATGGTTCGGAGTCACCTAGTGCAG", "binding signal": "36000 fluorescence intensity (a.u.)"}
{"sequence": "ATCGTGTGACGACGTCTCGTCTCGTCTCCCTCTCCCGACCCGGAGTCACCTAGTGCAG", "binding signal": "3260 fluorescence intensity (a.u.)"}
{"sequence": "GCTCTCCGGGATTTGTCCTGGCAAGTGCCACAACAGCGCACGGAGTCACCTAGTGCAG", "binding signal": "3700 fluorescence intensity (a.u.)"}
{"sequence": "TTGACAATATTATTTCGCCACATCAGACCAGCCAGTACCACGGAGTCACCTAGTGCAG", "binding signal": "8430 fluorescence intensity (a.u.)"}
{"sequence": "TACAAGTCGCCGCGGGAGTTCGCCGGTGACGTGCGCCTTACGGAGTCACCTAGTGCAG", "binding signal": "8440 fluorescence intensity (a.u.)"}
{"sequence": "CCATTGATTGATTATCAGTGGGCGTAATCATCAGTCTAAACGGAGTCACCTAGTGCAG", "binding signal": "42100 fluorescence intensity (a.u.)"}
{"sequence": "CTCTCCGTCTCAGTCCACTGACGATGCATGTGAGTGAGTGCGGAGTCACCTAGTGCAG", "binding signal": "4340 fluorescence intensity (a.u.)"}
{"sequence": "CCACCGGTGACTGGATCCCGTCCTCTCTCTGGCCGCTAGCCGGAGTCACCTAGTGCAG", "binding signal": "3860 fluorescence intensity (a.u.)"}
{"sequence": "CTGTGTAATTAGTTTATTTTGTCTATATTTAATACTCTATCGGAGTCACCTAGTGCAG", "binding signal": "29200 fluorescence intensity (a.u.)"}
{"sequence": "TATATAACTTCCAGTACCAAAATTGCGTGATTGTGCTAATCGGAGTCACCTAGTGCAG", "binding signal": "9530 fluorescence intensity (a.u.)"}
{"sequence": "CGACCTGGCAGACCAACGTGGACCACGCGGCGGCGGCGGCCGGAGTCACCTAGTGCAG", "binding signal": "6130 fluorescence intensity (a.u.)"}
{"sequence": "ACACACACACACATATATATATCTGTGTGTGTGTCAAGCACGGAGTCACCTAGTGCAG", "binding signal": "3300 fluorescence intensity (a.u.)"}
{"sequence": "AATCCTGTTGTTGTGGTCTATCGCTTACAACTCTAATACTCGGAGTCACCTAGTGCAG", "binding signal": "4220 fluorescence intensity (a.u.)"}
{"sequence": "GAGTGCCTTTAGCTCAGCCACATCCTTCTTCATCGCTGCCCGGAGTCACCTAGTGCAG", "binding signal": "3930 fluorescence intensity (a.u.)"}
{"sequence": "AAGCAGTCGAGATTGCTTTCTCCACCCGCCGTCAATGACTCGGAGTCACCTAGTGCAG", "binding signal": "3270 fluorescence intensity (a.u.)"}
{"sequence": "GTGATTAGATGACCTACTGCTTATTTATTTTCATTCATACCGGAGTCACCTAGTGCAG", "binding signal": "3770 fluorescence intensity (a.u.)"}
{"sequence": "TATCTATTTCTAGTCCTTACACATCCTTATAACTCTTTTGCGGAGTCACCTAGTGCAG", "binding signal": "3220 fluorescence intensity (a.u.)"}
{"sequence": "TGGCGTGGCCACCCGCGGGTGCCGACGCGTCATCGATGCTCGGAGTCACCTAGTGCAG", "binding signal": "9030 fluorescence intensity (a.u.)"}
{"sequence": "CGTCCATCTCCGCGTCCGCGCTCTCGTGGCTCCACCTCCACGGAGTCACCTAGTGCAG", "binding signal": "3890 fluorescence intensity (a.u.)"}
{"sequence": "ATCGCTACATTCCTGGAGGCATCCAGTTGATTCCACTCAACGGAGTCACCTAGTGCAG", "binding signal": "3180 fluorescence intensity (a.u.)"}
{"sequence": "GTTATCCCCTCCTCGTCACGCTATCTATAGGCCCATTATTCGGAGTCACCTAGTGCAG", "binding signal": "6850 fluorescence intensity (a.u.)"}
{"sequence": "TGTAAATCTGGATTGCACATTACTCTTCTGTACTATCCATCGGAGTCACCTAGTGCAG", "binding signal": "3410 fluorescence intensity (a.u.)"}
{"sequence": "ATCTAACTGTTGTCGATCTGGCGGTCTGACGATCTGACTCCGGAGTCACCTAGTGCAG", "binding signal": "3890 fluorescence intensity (a.u.)"}
{"sequence": "CCCACATCTCAGCCCACGTAGGCTCAATACATCCAGTTGGCGGAGTCACCTAGTGCAG", "binding signal": "7560 fluorescence intensity (a.u.)"}
{"sequence": "CCGAGGCCTCAGTGGATTGAGCGGGTGTGTGTGTCGAGCGCGGAGTCACCTAGTGCAG", "binding signal": "4600 fluorescence intensity (a.u.)"}
{"sequence": "GTCCTCGCCACGGCGCGCACGCCACGCGTACGTAGGCCGGCGGAGTCACCTAGTGCAG", "binding signal": "5270 fluorescence intensity (a.u.)"}
{"sequence": "CTCAGTCGACCAATCGTTGATCGCCACGTCGGCTGTTCTTCGGAGTCACCTAGTGCAG", "binding signal": "11200 fluorescence intensity (a.u.)"}
{"sequence": "AGAAGAAGAAGAAGAGGAAAGCCATCGTCATCATCGTGTCCGGAGTCACCTAGTGCAG", "binding signal": "6020 fluorescence intensity (a.u.)"}
{"sequence": "ATATTATTGATGATGTGGAGAAGTTAAAGGAGCATGCACACGGAGTCACCTAGTGCAG", "binding signal": "6090 fluorescence intensity (a.u.)"}
{"sequence": "GACGTCGTCCTTCCTGCCGTGCGCGTGTCAGAGGAGCAGCCGGAGTCACCTAGTGCAG", "binding signal": "3140 fluorescence intensity (a.u.)"}
{"sequence": "CTTGACAGTTATTTTGACACGTCCTGGTGGTGCGTTTTAACGGAGTCACCTAGTGCAG", "binding signal": "3820 fluorescence intensity (a.u.)"}
